For at least one compound, name, drawing or mass did not settle the structure.
Target: T1, MTP (Rattus norvegicus, UniProt D4A1W8)
T1 construct: endogenous in cells; host or cells: rat primary hepatocytes (male Sprague-Dawley), cell lysate
T1 sequence (D4A1W8 22-896): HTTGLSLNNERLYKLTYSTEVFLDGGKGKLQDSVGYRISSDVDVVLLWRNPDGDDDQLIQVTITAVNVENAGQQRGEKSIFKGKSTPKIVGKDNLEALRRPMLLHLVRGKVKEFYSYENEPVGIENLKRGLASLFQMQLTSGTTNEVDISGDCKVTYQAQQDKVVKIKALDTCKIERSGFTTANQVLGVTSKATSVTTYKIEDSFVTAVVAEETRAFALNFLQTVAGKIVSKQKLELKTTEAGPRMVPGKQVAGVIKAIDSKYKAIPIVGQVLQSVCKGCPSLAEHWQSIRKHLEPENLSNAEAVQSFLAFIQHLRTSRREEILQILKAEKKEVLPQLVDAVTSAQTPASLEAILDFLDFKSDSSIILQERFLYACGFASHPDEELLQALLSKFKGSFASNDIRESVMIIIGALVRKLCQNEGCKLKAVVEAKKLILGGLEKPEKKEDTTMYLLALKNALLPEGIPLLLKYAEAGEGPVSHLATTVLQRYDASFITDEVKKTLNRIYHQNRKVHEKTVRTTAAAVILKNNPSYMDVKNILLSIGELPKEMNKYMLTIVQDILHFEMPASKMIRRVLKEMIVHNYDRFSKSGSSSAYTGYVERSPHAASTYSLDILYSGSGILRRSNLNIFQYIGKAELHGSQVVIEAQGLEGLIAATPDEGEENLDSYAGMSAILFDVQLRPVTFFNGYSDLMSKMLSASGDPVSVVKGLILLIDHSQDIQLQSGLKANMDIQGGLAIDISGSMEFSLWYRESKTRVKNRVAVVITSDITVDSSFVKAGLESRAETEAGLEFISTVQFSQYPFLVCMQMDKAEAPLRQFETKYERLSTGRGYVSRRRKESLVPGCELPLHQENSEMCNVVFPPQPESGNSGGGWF
T1 sequence (P04785 20-509 partner): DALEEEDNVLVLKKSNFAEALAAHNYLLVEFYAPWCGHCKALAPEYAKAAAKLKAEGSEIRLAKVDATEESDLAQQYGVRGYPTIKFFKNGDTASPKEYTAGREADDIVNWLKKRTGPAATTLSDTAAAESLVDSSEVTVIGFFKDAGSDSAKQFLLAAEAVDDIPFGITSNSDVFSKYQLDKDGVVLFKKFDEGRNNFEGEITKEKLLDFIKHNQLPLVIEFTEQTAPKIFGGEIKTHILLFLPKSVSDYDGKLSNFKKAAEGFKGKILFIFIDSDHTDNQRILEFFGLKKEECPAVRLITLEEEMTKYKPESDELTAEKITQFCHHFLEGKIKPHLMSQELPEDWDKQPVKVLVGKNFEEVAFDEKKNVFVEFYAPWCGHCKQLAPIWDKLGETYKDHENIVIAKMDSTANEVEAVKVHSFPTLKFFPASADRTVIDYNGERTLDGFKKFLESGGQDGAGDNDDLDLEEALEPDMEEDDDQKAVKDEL
Assay: MTP activity in lysates of fatty acid-pretreated rat primary hepatocytes
Format: biochemical
Settings: hepatocytes pre-treated 6 hr with BSA, OA or EPA
Procedure: Three methods were used to assess possible effects of Ω-3 fatty acids on cellular MTP function. First, rat primary hepatocytes were incubated with BSA, OA, or EPA, and then MTP activity in cell lysates was measured using a fluorescent assay (Roar Biomedical, New York, NY). Second, to determine if lipid classes synthesized in the presence of OA or Ω-3 fatty acid are equivalent substrates for MTP, primary rat hepatocytes or HepG2 cells were incubated with tritiated OA or EPA, total cellular lipids were extracted into isopropanol, and biosynthetically labeled cholesteryl ester, triglyceride, and phospholipids were separated by preparative thin layer chromatography. […] Transfer of the labeled lipids to acceptor vesicles in the presence of 50 μg of purified bovine MTP was measured as described in Jamil, H. et al (1995) J Biol Chem 270(12), 6549-54.
First, it was necessary to test the possibility that Ω-3 fatty acids stimulate apob degradation by impeding MTP-dependent early lipidation, thereby targeting apoB to proteasomes. Rat primary hepatocytes were pre-treated for 6 hr with BSA, OA, or EPA, and then the MTP activity in lysates of these cells was assessed using artificial donor and acceptor vesicles, with [^14C]triolein as the MTP substrate, as described in Jamil, H. et al. (1995) J Biol Chem 270(12), 6549-54.

CC/C=C\C/C=C\C/C=C\C/C=C\C/C=C\CCCC(=O)O [EPA, eicosapentaenoic acid]
MTP-mediated transfer of labeled triolein in cell lysates: No difference

— patent US20030170643A1, “Regulation of apoB treatment and drug screening for cardiovascular and metabolic disorders or syndromes” (priority 1999, published 2003)
